Literature values as cited in patent US20260217727A1, “COMPOUNDS DERIVED FROM DIHYDROPIRIDINES, PHARMACEUTICAL COMPOSITIONS COMPRISING SAID COMPOUNDS AND METHOD OF TREATMENT OF MUSCLE DISORDERS COMPRISING ADMINISTRATION OF SAID COMPOSITIONS” (UNIVERSIDAD DE CHILE, priority 2023, published 2026).
For at least one compound, name, drawing or mass did not settle the structure.

System: fdb muscle fibers
Settings: earlier results of the inventors; cited from earlier work

## COC(=O)C1=C(C)NC(C)=C(C(=O)OC)C1c1ccccc1[N+](=O)[O-] [Nifedipine]
  ATP outflow after electrical stimulation of the muscle fiber (earlier work): almost total inhibition of ATP outflow
